Results reported in publication doi:10.1101/2020.06.15.145656.
Results are given in words; binding and its absence hold for the method and conditions named. Binding seen in cells or lysates may run through a third protein. These calls come from enrichment with a bait or labelling near it, and not all partners need be listed. Tags and fused reporters may be left off the sequences shown.

Chains of the proteins cited; added tags and fusions are not shown.
UniProt O15047: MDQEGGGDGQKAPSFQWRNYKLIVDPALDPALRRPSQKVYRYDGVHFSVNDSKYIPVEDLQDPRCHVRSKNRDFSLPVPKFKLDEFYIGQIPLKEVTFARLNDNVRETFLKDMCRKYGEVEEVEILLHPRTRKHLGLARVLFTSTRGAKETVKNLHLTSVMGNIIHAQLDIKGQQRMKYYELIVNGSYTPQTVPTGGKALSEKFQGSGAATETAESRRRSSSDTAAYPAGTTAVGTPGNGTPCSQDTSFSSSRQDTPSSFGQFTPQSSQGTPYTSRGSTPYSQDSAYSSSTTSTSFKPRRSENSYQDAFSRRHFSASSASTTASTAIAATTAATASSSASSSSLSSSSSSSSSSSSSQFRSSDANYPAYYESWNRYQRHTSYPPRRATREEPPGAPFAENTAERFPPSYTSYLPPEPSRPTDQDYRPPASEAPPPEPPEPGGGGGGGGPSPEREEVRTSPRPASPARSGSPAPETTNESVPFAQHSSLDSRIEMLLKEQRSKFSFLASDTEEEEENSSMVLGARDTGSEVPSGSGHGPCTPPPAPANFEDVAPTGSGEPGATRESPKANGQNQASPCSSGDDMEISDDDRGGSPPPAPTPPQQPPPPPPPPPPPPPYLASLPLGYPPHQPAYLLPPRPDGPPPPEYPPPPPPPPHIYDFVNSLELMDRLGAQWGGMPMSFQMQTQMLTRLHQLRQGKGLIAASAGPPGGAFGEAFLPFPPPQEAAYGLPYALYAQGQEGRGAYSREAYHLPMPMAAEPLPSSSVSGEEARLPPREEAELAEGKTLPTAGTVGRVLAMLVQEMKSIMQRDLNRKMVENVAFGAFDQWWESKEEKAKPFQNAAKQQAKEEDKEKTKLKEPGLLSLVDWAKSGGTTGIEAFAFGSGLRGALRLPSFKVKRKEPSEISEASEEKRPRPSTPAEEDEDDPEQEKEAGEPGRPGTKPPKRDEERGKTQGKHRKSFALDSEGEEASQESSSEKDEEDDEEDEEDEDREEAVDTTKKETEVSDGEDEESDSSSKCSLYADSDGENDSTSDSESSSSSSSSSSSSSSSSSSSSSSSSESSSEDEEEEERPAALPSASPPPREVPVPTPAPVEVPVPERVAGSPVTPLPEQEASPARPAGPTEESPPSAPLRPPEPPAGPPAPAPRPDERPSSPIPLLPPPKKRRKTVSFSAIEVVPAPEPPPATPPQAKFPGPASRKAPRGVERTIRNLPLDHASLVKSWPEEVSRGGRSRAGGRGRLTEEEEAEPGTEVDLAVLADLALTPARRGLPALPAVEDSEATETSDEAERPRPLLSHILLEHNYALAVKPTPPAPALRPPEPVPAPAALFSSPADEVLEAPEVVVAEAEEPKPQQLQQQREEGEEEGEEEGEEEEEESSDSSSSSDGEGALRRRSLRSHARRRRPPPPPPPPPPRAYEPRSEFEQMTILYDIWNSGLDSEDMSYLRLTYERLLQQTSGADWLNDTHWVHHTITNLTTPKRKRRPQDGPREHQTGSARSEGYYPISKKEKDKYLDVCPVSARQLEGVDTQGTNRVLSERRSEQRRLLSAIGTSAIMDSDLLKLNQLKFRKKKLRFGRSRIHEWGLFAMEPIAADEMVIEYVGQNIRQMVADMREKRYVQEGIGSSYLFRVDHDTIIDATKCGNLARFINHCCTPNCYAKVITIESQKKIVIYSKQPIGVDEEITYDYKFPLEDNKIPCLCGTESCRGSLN

Target: T1, HMGXB4^K317R/K320R-HA (HMGXB4^SUMO-), SILAC pull-down (human) (UniProt Q9UGU5)
T1 sequence: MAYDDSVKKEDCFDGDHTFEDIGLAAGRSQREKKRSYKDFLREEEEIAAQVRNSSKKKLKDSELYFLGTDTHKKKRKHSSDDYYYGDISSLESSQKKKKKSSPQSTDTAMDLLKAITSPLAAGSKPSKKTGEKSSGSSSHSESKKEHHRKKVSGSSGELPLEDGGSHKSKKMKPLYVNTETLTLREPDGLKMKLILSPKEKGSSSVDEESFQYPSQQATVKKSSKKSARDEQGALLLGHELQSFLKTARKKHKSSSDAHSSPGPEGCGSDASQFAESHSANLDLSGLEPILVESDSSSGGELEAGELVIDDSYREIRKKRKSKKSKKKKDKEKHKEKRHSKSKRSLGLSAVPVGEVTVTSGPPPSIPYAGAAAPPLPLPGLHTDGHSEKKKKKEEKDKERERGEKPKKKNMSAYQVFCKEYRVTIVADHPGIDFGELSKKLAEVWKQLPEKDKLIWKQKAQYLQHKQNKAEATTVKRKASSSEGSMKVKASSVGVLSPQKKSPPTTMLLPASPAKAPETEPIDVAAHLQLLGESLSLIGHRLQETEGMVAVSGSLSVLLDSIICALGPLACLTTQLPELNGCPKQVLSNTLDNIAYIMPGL
Assay: affinity purification with mass spectrometry

With “SETD1A (from UniProt O15047 1-1707) (enzyme)” the binding was “binds”.
